# Laboratory results taken from the supplement of paper PMC3334620.
# Whole data set: some 33,000 sequences, median “E-score (-0.5 to 0.5)” near -0.0059, cut for the highest 2% near 0.26. The list shows a part of the results.
# Molecular target: T1, Cin5 (UniProt P40917)
# T1 sequence: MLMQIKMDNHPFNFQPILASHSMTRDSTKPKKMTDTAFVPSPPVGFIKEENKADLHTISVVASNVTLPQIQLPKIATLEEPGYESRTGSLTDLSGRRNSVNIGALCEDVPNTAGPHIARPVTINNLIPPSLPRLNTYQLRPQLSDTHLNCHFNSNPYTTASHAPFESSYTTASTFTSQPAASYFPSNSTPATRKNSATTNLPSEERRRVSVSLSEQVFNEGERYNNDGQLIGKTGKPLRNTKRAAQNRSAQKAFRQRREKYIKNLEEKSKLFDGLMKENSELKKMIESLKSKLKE
# Test: PBM E-score (8-mer binding enrichment) (E-score (-0.5 to 0.5)); higher = stronger / more preferred TF binding
# Details: protein concentration: 100 nM; construct: GST-full length
# Procedure, shortened: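 Universal all-10-mer Agilent arrays, double-stranded by primer extension on fresh or once-stripped slides, were probed with about 100-200 nM GST-tagged yeast transcription factors made by PURExpress. Fluorescent anti-GST detected bound protein, and masliner normalised the scans. E-scores from the Universal PBM Analysis Suite were given to each ungapped eight-base word pooled with its reverse complement.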
row,Sequence,PBM E-score
1,ACTCTGGG,-0.0166
2,AGCGCTCG,-0.191
3,CCTCGCAC,-0.0617
4,TCTGACCA,0.0096
5,CCCTCGGA,-0.16
6,CAGGCCGA,-0.0921
7,ACAACGAT,0.058
8,CTTCTCAC,0.0781
9,CGACCCAG,-0.145
10,AGCCGGCG,-0.032
11,ACACGACA,0.207
12,GTAGAGCA,-0.136
13,TCCGTAAA,-0.0225
14,AAATCGAC,0.0909
15,AATTGGGT,0.319
16,GAGAGATC,0.107
17,TCGATGCA,0.152
18,CGTAGCAC,-0.0485
19,AAACGCTC,-0.173
20,CTGACGTC,0.035
21,ATCGCCCA,-0.11
22,AGACAAGC,-0.013
23,CTTCGGAC,-0.0638
24,TGATACCA,0.101
25,GCGGCGAC,0.0144

row,Sequence,PBM E-score
1,ACAACCAC,0.0998
2,CCACCGGA,0.0953
3,ATCATTGC,0.0191
4,ATGGATTA,0.0354
5,ACATGGCT,-0.0786
6,CCTCATAA,-0.0599
7,AGTTGGTG,-0.0389
8,AATCGTCC,0.0766
9,CCAGTGAG,-0.2
10,CCTGTCCA,-0.264
11,CTAACATC,0.034
12,ACAAGGCT,-0.224
13,CCACCGCG,0.0785
14,TACGTCGA,-0.0577
15,TACTCCGA,0.0999
16,CTGGGATC,-0.242
17,GCCCGGAA,-0.0145
18,ACGTCCTG,-0.179
19,CAGAATAG,0.0117
20,GCGTTGGA,-0.18
21,ATGAGCCC,-0.154
22,CCAGCCTC,-0.246
23,CATTATAC,0.287
24,CTCATTCA,0.0891
25,CTTAAGAA,0.0235

row,Sequence,PBM E-score
1,GAGCCTGC,-0.25
2,AAACGGAC,-0.129
3,TCATGTCA,0.117
4,CCAAGTCC,-0.121
5,AAGGCGCC,-0.0857
6,TAAAGCCA,-0.0479
7,CCGGGGGA,-0.227
8,AGACAGGA,-0.0938
9,GAGGCATC,-0.276
10,ATCGCTGC,0.0127
11,ATGCAATG,0.035
12,GAAACGCC,0.114
13,AGTTTCGG,0.0242
14,TGCAGCAA,0.0141
15,GGGGTTTA,-0.169
16,AAGGGGCA,-0.183
17,ACCCTACT,-0.0325
18,CTGATCTC,0.00613
19,CAAATCTC,0.0717
20,GCACAACC,-0.128
21,ATTATGGA,0.131
22,AAATGGGT,0.135
23,CAGTTGCC,-0.0581
24,CAAGCTGA,0.233
25,CCCTGTGC,-0.18

# Shown with bars between the fields: entries from further up
row | Sequence | PBM E-score
7 | CCGGGGGA | -0.227
25 | CCCTGTGC | -0.18

# More results

row,Sequence,PBM E-score
1,GATGTTGA,0.113
2,CTTCCTTA,-0.0223
3,GATTCTGA,-0.157
4,ATCTTTAC,0.104
5,CAATACTG,-0.0857
6,AACGTAAG,0.274
7,CTTGCAGC,-0.192
8,GCGTACAC,-0.123
9,ATCGGATG,0.0979
10,GCAAGCTA,-0.0898
11,ATTAGATC,0.145
12,CACCTACA,-0.127
13,AACTGACT,-0.0943
14,ACGATCCG,0.0588
15,ATTGCGTG,-0.00281
16,ACCACAAG,-0.117
17,CGGTCCGC,-0.178
18,ATGTCGAG,-0.0728
19,GGTCGAGA,-0.196
20,TTAGCTAA,0.343
21,ACTACAAA,0.187
22,AAGTAATA,0.247
23,AGTTCAAT,0.0142
24,CCAAGAAC,-0.132
25,ACCTAATG,-0.134

row,Sequence,PBM E-score
1,CCGCCTAC,0.0336
2,GTCCACAA,-0.125
3,GCACACAC,-0.0905
4,CCCAAAAA,-0.0897
5,TAATCGTA,0.247
6,TCCTGAGA,-0.137
7,AGAGGATC,-0.116
8,GTATGCCA,-0.145
9,AACGCGGT,-0.0452
10,CAATCTTA,0.0906
11,ACTTTCCC,-0.0967
12,CTTGTTTA,-0.0376
13,CCGTGATC,-0.0747
14,ACCTTGCA,-0.163
15,ACCAGCGG,-0.124
16,TCAACGAA,-0.0121
17,AGCGAAAA,0.0839
18,ATGGCCAG,0.0918
19,AGGTAACT,0.113
20,CCTCAAGA,-0.0822
21,CCCTTTCC,-0.307
22,ACCAACAA,0.167
23,AAAGAGAA,0.104
24,AGTATGTC,0.149
25,GCCCAAAC,-0.0563

row,Sequence,PBM E-score
1,GAAATATC,0.111
2,AGCCGGCC,0.0774
3,ACCTACTC,0.0706
4,CACGGTCA,-0.12
5,AAGTCAGA,0.0006
6,AAGCTTGA,0.0619
7,ATAAGCTA,0.2
8,CGCCAGTC,-0.182
9,ACTTGCAG,-0.0905
10,CTTAACCC,-0.21
11,AAAGTCTT,-0.0653
12,TTGAAAAA,0.101
13,AGAGAAGA,0.00912
14,CCCCCAGA,-0.475
15,ACTCTACT,0.0776
16,ACGACGAA,0.0953
17,ATTGCGTC,0.128
18,CACCCAAC,-0.03
19,AACTTATG,0.153
20,CGTAATTC,0.228
21,TACCCGTA,-0.00613
22,CTCCTACC,-0.304
23,ATATCGGA,0.0984
24,CAGCCTGG,-0.0233
25,GTACGGAA,0.175

row,Sequence,PBM E-score
1,AGACTGTG,-0.116
2,AGTTGTTC,0.0659
3,CAAAAAGG,-0.138
4,ATATCCGC,0.0849
5,CTAATGTC,0.121
6,ATCAGCCA,-0.0446
7,TACGGGGA,-0.116
8,AGGCCATC,-0.0378
9,AGCAGTTC,0.00918
10,AAATGGAC,0.122
11,TCAGGTAA,0.125
12,CGTTATAA,0.0891
13,ATTAAAGC,0.00379
14,CAGCGCTC,-0.141
15,TCACTCCA,0.0865
16,CGCGTAAC,-0.0538
17,CGGTCAGA,-0.146
18,CTTCGCGA,0.00601
19,TCTTATAA,0.114
20,AAAAGGGT,-0.0833
21,TCGGATAA,0.102
22,AGTCCCCA,-0.191

# Nothing new here: an excerpt of the list.
row,Sequence,PBM E-score
2,AGTTGTTC,0.0659
3,CAAAAAGG,-0.138
4,ATATCCGC,0.0849
5,CTAATGTC,0.121
